Several values for one entry are separate records, joined by “and”; a condition that tells them apart may be missing. Equal values may be shown once. The list shows a part of the results. Single wells; the ratio to wells without odorant was worked out here, and repeats agree poorly.

Among the data in the odorant receptor screen of Mainland et al. (2015) are odorant receptor activation values, retold here.

Common to all, as to assay: odorant receptor activation (CRE luciferase / Renilla) (fold of no-odor wells); higher = more activation
Common to all, as to conditions: 100 µM

Assay [1] concerns OR7C2 clone 1292.
Assay [2] deals with OR7D2 clone 1405.
Assay [3] deals with OR7D4 clone 1298.
Assay [4] relates to OR7E24 P242S clone 1314.
Assay [5] has as its system OR7G1 clone 1295.
For assay [6], the system named is OR7G2 V263A/F281V clone 1312.
In assay [7] the test system is OR7G2 clone 1475.
The test system of assay [8] is OR7G3 clone 1297.
Assay [9] concerns OR8A1 clone 1503.
In assay [10] the test system is OR8B12 clone 1731.
For assay [11], the system named is OR8B3 H20R/Q24R/V34I/M114I clone 1727.
In assay [12] the test system is OR8B4 E22G clone 1227.
For assay [13], the system named is OR8B4 Y131H/C140F/C178R clone 1440.
Assay [14] concerns OR8B8 clone 1226.
The subject of assay [15] is OR8B8 clone 1504.
Assay [16] relates to OR8D1 clone 1142.
For assay [17], the system named is OR8D2 clone 1179.
The subject of assay [18] is OR8D4 C120Y/R133K/F200L/L283P/R298K clone 1072.
The test system of assay [19] is OR8G1 clone 1395.
The subject of assay [20] is OR8G5 clone 1323.

Take `CCCCCOC(C)=O` [n-amyl acetate]: the odorant receptor activation in [1] was determined as 0.552; in assay [2] it was 0.971; in [3], 0.564; in assay [4], 0.692; in assay [5], 0.575; in [6], 0.357. Also, the odorant receptor activation is 1.09 and 0.809 in assay [7]; 0.695 in assay [8]; 0.866 and 0.784 in assay [9]; 0.81 in assay [10]; 0.429 in [11]; 0.6 in assay [12]. The odorant receptor activation was 0.933 in [13]; 0.54 in assay [14]; 0.69 and 0.879 in [15]; 0.751 in [16]; 0.598 in assay [17]; 2.14 in assay [18]. Moreover, the odorant receptor activation in assay [19] was determined as 0.827; in [20], 0.548.
Consider `CC(C)CC(=O)O` [isovaleric acid], for which the odorant receptor activation in [1] came out at 1.04; in assay [2] it was 0.797; in assay [3] it was 0.765; in assay [4], 0.778; in assay [5] it was 0.9; in assay [6], 0.884. For the same compound, the odorant receptor activation in assay [7] is 1.06; in assay [8], 0.956; in assay [9] it was 0.871; in assay [10], 1.35; in assay [11] it was 0.992; in [12] it was 1.33. The odorant receptor activation stood at 0.924 in [13]; 1.47 in assay [14]; 1 in assay [15]; 1.07 in [16]; 0.983 in assay [17]; 1.31 in assay [18]. For the same compound, the odorant receptor activation in assay [19] was 0.978; in [20] it was 0.668.
Consider `O=C1CCCCCCCCCCCCCCO1` [pentadecalactone], for which the odorant receptor activation turned out to be 0.827 in assay [1]; 1.21 in assay [2]; 0.717 in assay [3]; 0.74 in assay [4]; 0.643 in assay [5]; 0.88 in [6]. Further, the odorant receptor activation in assay [7] is 0.722; in assay [8] it was 0.886; in assay [9], 0.781; in [10], 0.668; in assay [11], 0.785; in assay [12], 0.948. Moreover, the odorant receptor activation stood at 1.2 in assay [13]; 0.897 in assay [14]; 0.988 in assay [15]; 0.846 in assay [16]; 0.683 in assay [17]; 0.969 in assay [18]. In addition, the results for the odorant receptor activation in assay [19] and in assay [20] were 1.05 and 0.747, respectively.
Consider `CCCCCCOC(=O)CCC` [hexyl butyrate], for which the odorant receptor activation in assay [1] was 1.29 and 1.21; in assay [2], 0.71; in assay [3], 1.09 and 1.03; in assay [4], 0.863 and 0.983; in [5], 0.948 and 0.965; in assay [6], 0.884 and 0.556. The odorant receptor activation is 1.38 and 0.942 in [7]; 0.862 and 0.708 in [8]; 1.22 and 0.786 in assay [9]; 0.936 in assay [10]; 0.764 in [11]; 1.23 in assay [12]. The odorant receptor activation in assay [13] was 0.822; in [14], 1.08; in assay [15], 1.04 and 1.07; in assay [16] it was 1; in assay [17] it was 1.13; in assay [18], 0.983. The odorant receptor activation in [19] was 0.608; in [20], 0.815 and 0.957.
As for `CC12C=CCC1C1CCC3=CC(=O)CCC3(C)C1CC2` (configuration not stated) [androstadienone], the odorant receptor activation in assay [1] is 0.885 and 1.07; in [2] it was 0.882; in [3] it was 1.04 and 2.09; in assay [4], 0.808 and 0.936; in [5], 1.05 and 1.12; in assay [6], 1.36 and 0.699. The odorant receptor activation is 0.806 and 1.29 in assay [7]; 0.833 and 0.853 in assay [8]; 0.801 and 1.12 in assay [9]; 1.18 in assay [12]; 0.834 in assay [13]; 0.93 in assay [14]. Also, the odorant receptor activation in assay [15] was 1.07 and 1.22; in assay [16], 1.29; in [17] it was 1.27; in assay [18] it was 1.76; in assay [19], 0.842; in assay [20], 0.9 and 1.08.
In the case of `CC(=O)OC1CC2CCC1(C)C2(C)C` (configuration not stated) [isobornyl acetate], the odorant receptor activation in assay [1] was 1.19; in [2] it was 0.825; in [3] it was 1.04 and 1.12; in assay [4], 0.929 and 0.907; in [5], 0.821 and 0.998; in assay [6], 1.07 and 0.781. In addition, the odorant receptor activation in assay [7] was 1.23 and 1.25; in assay [8], 0.751 and 0.669; in [9], 0.944 and 1.6; in [10] it was 1.01; in [11] it was 0.886; in assay [12], 1.28. The odorant receptor activation in assay [13] was 0.863; in assay [14], 0.917; in assay [15], 0.837 and 1.2; in assay [16], 1.15; in assay [17], 1.06; in [18] it was 2.11. The odorant receptor activation in assay [19] was 0.822; in [20] it was 0.761 and 0.801.
`CCCCCCCCOC(C)=O` [octyl acetate]: the odorant receptor activation in [1] is 1.47; in assay [2], 0.723; in assay [3], 1.27; in assay [4] it was 1.09; in assay [5], 1.09; in [6], 1.07. Besides, the odorant receptor activation in assay [7] is 0.992; in assay [8], 1.11; in assay [9], 0.961; in [10] it was 0.655; in assay [11], 0.778; in [12] it was 1.24. Further, the odorant receptor activation in assay [13] is 0.96; in assay [14], 1.14; in assay [15] it was 0.772; in assay [16], 0.925; in assay [17] it was 1.01; in assay [18] it was 0.928. Also, the results for the odorant receptor activation in assay [19] and in assay [20] were 0.796 and 0.972, respectively.
As for `C=C(C)C1CCC2=CC(=O)CC(C)C2(C)C1` (configuration not stated) [amyl laurate], the odorant receptor activation worked out at 2.04 in [10] and 0.693 in [11].
Take `CC1COCc2cc3c(cc21)C(C)(C)C(C)C3(C)C` (configuration not stated) [galaxolide]: the odorant receptor activation in [1] is 1.16 and 1.47; in [2] it was 2.94; in [4], 2.88 and 3.4; in [5] it was 1.06 and 1.33; in assay [6], 3.64 and 3.19; in [7] it was 3.13 and 5.69. The odorant receptor activation was 6.64 and 4.49 in assay [9]; 0.341 and 0.544 in [11]; 0.905 in assay [12]; 2.93 in assay [13]; 0.663 in [14]; 7.02 and 4.04 in assay [15]. In addition, the odorant receptor activation is 1.04 in [16]; 0.868 in [17]; 4.27 in assay [18]; 2.4 in assay [19]; 0.873 and 1.13 in assay [20].
As to `CC(=O)c1ccccc1` [acetophenone], the odorant receptor activation in assay [1] came out at 2.01; in assay [2], 0.988; in assay [3], 1.85; in assay [4], 1.39; in [5] it was 1.58; in [6], 0.492. Further, the odorant receptor activation in assay [7] is 1.23 and 0.501; in [8], 2.76; in assay [9], 0.765 and 0.975; in assay [12], 1.04; in assay [13] it was 1.09; in [14], 1.01. Also, the odorant receptor activation in assay [15] is 0.783 and 0.94; in assay [16] it was 1.76; in [17], 0.967; in assay [18], 1.24; in assay [19], 1.03; in assay [20], 0.892.
With `CC(C)(O)CCCC1=CCC(C=O)CC1` (configuration not stated) [lyral], the odorant receptor activation worked out at 0.929 in assay [10] and 0.657 in [11].
`CC1=CCC(C(C)(C)O)CC1` (configuration not stated) [terpineol]: the odorant receptor activation in assay [1] is 0.939; in assay [2] it was 1.09; in assay [3] it was 0.923; in [4], 1.07; in assay [5] it was 1.04; in assay [6], 0.985. The odorant receptor activation worked out at 0.605 in assay [7]; 0.733 in assay [8]; 0.918 in assay [9]; 0.632 in assay [10]; 0.15 in assay [11]; 1.2 in [12]. Moreover, the odorant receptor activation was determined as 1.06 in assay [13]; 1.09 in assay [14]; 0.84 in [15]; 1.22 in assay [16]; 0.944 in assay [17]; 1.24 in assay [18]. The odorant receptor activation turned out to be 1.13 in assay [19] and 0.882 in [20].
Turning to `C=C(C)C1CC=CCC1` (configuration not stated) [r-limonene], the odorant receptor activation in assay [1] was 0.861 and 0.577; in [2], 1.21 and 0.931; in [3] it was 0.764 and 0.308; in assay [4] it was 1.21 and 0.449; in assay [5], 0.769 and 0.424; in assay [7], 0.976 and 1.07 and 0.641. Moreover, the odorant receptor activation was 0.954 and 0.524 in assay [8]; 1.07 and 0.83 and 0.751 in assay [9]; 0.993 in assay [10]; 1.44 in assay [11]; 1.18 and 0.404 in [12]; 1.31 and 1.25 in assay [13]. In addition, the odorant receptor activation is 1.04 and 0.463 in assay [14]; 1.02 and 0.552 and 1.19 in assay [15]; 0.947 and 0.524 in assay [16]; 0.98 and 0.578 in assay [17]; 1.39 and 2.48 in [18]; 1 and 0.966 in assay [19]. The odorant receptor activation in assay [20] was 0.836 and 0.472.
As for `O=CCc1ccccc1` [phenyl acetaldehyde], the odorant receptor activation came out at 1.04 in assay [1]; 1.57 in assay [2]; 1.03 in assay [3]; 1.02 in [4]; 1.11 in [5]; 1.44 in assay [6]. Moreover, the odorant receptor activation in assay [7] came to 1.14; in [8] it was 1.12; in assay [9] it was 1.12; in [10], 2.6; in [11] it was 1.91; in [12] it was 1.46. Moreover, the odorant receptor activation in assay [13] was found to be 1.42; in [14], 0.927; in assay [15], 1.2; in assay [16], 1.43; in [17] it was 1.26; in [18] it was 1.43. For the same compound, the odorant receptor activation in [19] is 1.8; in assay [20], 1.07.
Take `CC12C=CCC1C1CCC3CC(=O)CCC3(C)C1CC2` (configuration not stated) [androstenone]: the odorant receptor activation in assay [1] was 1.32; in assay [2], 0.401; in assay [3] it was 3.99; in assay [4] it was 1.36; in [5], 1.37; in assay [6], 1.73. The odorant receptor activation in assay [7] worked out at 0.986; in assay [8], 1.02; in [9], 1.09; in [12], 5.7; in [13] it was 0.814; in assay [14], 7.7. The odorant receptor activation amounted to 1.19 in assay [15]; 6.61 in assay [16]; 5.35 in assay [17]; 1.18 in assay [18]; 1.24 in assay [19]; 1.13 in assay [20].
As for `CC(C)(C)c1ccc(CCC=O)cc1` [bourgeonal], the odorant receptor activation was 0.601 in assay [1]; 0.227 in assay [2]; 0.661 in assay [3]; 0.465 in assay [4]; 0.654 in [5]; 0.657 in [6]. The odorant receptor activation in assay [7] was 0.983; in [8], 0.625; in assay [9], 1.02; in assay [12], 0.598; in [13], 0.1; in assay [14], 0.545. In addition, the odorant receptor activation was found to be 0.84 in assay [15]; 0.797 in assay [16]; 0.741 in assay [17]; 0.762 in [18]; 0.175 in assay [19]; 0.626 in [20].
